For experiment [1], the target named is T1, stathmin (human (endogenous in MDA-MB-231)) (UniProt P16949).
T1 sequence: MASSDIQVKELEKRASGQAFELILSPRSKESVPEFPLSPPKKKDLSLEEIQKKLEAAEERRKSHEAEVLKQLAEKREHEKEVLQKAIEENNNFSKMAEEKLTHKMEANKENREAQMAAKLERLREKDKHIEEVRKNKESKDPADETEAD
In words: proximity ligation; in situ Duolink PLA in fixed (4% PFA), permeabilised MDA-MB-231 cells with anti-stathmin and anti-p27 antibodies; cells transfected with siCTRL or siHMGA1 for 72 h.

The chains behind the UniProt entries cited, without tags or fusion partners.
UniProt P46527: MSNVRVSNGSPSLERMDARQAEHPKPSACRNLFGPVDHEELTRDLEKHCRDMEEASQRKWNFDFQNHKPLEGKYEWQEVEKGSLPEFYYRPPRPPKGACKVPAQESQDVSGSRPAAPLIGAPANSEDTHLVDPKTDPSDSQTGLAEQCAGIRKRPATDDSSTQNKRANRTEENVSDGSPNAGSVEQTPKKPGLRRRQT

In experiment [2] the target is T1, stathmin (human (endogenous in MDA-MB-231)). In words: co-IP; 0.7-1 mg total MDA-MB-231 extract (RIPA lysis) incubated with anti-stathmin or non-specific IgG antibody in HNTG buffer (20 mM HEPES, 150 mM NaCl, 10% glycerol, 0.1% Triton X-100) overnight at 4 °C, protein A or G Sepharose; western blot; cells transfected with siCTRL or siHMGA1. (In western blotting, separated proteins are transferred to a membrane and probed.)

Results are given in words; binding and its absence hold for the method and conditions named. Binding seen in cells or lysates may run through a third protein. Some entries that bind do so weakly or less than the wild type.

With “cyclin-dependent kinase inhibitor p27^kip1 (from UniProt P46527 1-198)”, the binding result in experiment [1] and in experiment [2] was “binds” each time.

Source of the values: publication PMC9065117.
